In paper PMC9930781, “Design, synthesis, docking, and anticancer evaluations of new thiazolo[3,2-a] pyrimidines as topoisomerase II inhibitors” (Journal of Enzyme Inhibition and Medicinal Chemistry, 2023):

Assay: In vitro cytotoxicity on WI-38 human cell line (MTT)
Type: cell-based
Conditions: WI-38 normal fibroblast cells, WI-38 normal fibroblasts
Description: Cell line cells were provided from the American Type Culture Collection cultured in DMEM (Invitrogen/Life Technologies) with 10% FBS (Hyclone), 1% penicillin-streptomycin, and 10 μg/mL insulin (Sigma). The remainder of the chemicals and reagents were provided by either Sigma or Invitrogen. Prior to the MTT assay, plated cells were incubated for 24 h in a 96-well plate with 100 μl of the test substance per well and 100 μl of complete growth medium (cell density 1.2–1.8 × 10,000 cells/well). Cultures were transferred from the incubator and placed in a sterile work area or laminar flow hood. Then, 10% of the culture medium volume of reconstituted MTT was added, and the cultures were incubated for an additional 2 h. After that, cultures were taken out of the incubator, and the formazan crystals were dissolved using MTT solubilising solution [M-8910] in an amount equal to the volume of the original culture medium. The absorbance at 570 nm was measured. Finally, the IC50 of the test compound compared to the reference was calculated using the GraphPad Prism software.

COc1cccc2c1C(=O)c1c(O)c3c(c(O)c1C2=O)C[C@@](O)(C(=O)CO)C[C@@H]3O[C@H]1C[C@H](N)[C@H](O)[C@H](C)O1 [Doxorubicin, reference compound]
IC50 at 24 h: 10.4 ± 0.56 µM
